Reference: article PMC8933699
Results are given in words; binding and its absence hold for the method and conditions named. Binding seen in cells or lysates may run through a third protein. Some binding calls cover weakened binding; strength is not graded here.

The chains behind the UniProt entries cited, without tags or fusion partners. Where a name states a change or a piece, a line headed by the entry shows the natural chain unless it says otherwise. A line that says so, or that is headed by a name, gives the form on record, which may keep a tag or linker.
UniProt Q8TB45: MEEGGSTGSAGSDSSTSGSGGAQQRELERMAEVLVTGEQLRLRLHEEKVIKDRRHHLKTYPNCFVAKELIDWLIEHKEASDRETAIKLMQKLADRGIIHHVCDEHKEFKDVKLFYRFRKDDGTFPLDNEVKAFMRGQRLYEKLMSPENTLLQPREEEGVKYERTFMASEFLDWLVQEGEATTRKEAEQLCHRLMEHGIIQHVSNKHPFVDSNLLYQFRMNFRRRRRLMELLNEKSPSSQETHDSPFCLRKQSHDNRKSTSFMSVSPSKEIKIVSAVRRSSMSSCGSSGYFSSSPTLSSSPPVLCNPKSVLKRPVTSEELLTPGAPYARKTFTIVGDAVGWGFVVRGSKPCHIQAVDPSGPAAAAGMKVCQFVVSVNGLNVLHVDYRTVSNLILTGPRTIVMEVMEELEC
FLAG-tagged DEPTOR serine-to-aspartate (S-Asp) phosphomimetic mutant at residue 235 (Q8TB45, form named): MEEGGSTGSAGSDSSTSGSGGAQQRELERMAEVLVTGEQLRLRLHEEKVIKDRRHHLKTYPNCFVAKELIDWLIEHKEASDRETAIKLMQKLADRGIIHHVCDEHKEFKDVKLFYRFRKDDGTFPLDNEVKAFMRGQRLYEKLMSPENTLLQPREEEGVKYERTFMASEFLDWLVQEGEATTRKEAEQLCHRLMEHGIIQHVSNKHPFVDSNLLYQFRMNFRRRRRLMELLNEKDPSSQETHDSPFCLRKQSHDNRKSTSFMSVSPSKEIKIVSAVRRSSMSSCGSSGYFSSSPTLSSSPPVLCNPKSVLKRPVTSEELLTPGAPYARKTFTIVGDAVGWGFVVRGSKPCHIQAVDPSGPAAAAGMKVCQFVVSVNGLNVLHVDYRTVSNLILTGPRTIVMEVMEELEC
UniProt Q93009: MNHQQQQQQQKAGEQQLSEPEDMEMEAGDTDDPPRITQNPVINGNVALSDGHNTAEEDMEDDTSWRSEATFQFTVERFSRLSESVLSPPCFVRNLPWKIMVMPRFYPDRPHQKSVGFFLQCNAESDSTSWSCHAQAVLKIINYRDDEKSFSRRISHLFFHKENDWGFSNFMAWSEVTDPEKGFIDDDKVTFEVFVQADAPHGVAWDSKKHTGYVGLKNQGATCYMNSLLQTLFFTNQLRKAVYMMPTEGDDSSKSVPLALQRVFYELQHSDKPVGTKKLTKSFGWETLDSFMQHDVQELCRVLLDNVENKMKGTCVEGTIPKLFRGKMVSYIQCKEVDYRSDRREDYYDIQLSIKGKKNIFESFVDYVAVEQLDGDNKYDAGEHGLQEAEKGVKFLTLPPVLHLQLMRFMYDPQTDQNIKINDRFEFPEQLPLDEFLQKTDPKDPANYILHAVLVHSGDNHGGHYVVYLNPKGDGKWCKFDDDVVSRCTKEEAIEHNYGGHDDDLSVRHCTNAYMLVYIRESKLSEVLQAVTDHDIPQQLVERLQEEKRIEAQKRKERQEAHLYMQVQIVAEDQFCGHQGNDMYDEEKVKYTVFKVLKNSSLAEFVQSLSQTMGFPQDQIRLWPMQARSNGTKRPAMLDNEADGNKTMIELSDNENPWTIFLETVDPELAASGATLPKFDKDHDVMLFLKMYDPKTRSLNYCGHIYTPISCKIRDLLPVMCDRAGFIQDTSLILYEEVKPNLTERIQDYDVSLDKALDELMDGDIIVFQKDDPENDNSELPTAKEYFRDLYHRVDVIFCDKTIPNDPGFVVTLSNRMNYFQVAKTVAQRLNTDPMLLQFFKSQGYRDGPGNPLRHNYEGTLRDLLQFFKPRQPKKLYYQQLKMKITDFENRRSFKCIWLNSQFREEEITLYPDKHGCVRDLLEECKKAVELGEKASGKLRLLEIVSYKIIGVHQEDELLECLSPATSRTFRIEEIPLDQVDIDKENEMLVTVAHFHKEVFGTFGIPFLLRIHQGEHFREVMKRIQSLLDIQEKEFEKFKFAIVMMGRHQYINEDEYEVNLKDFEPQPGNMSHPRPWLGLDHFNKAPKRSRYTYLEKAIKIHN

Key:
[1] = molecular target: endogenous DEPTOR of primary MM cells (human (endogenous in primary MM cells)) (UniProt Q8TB45); assay: co-IP; endogenous DEPTOR immunoprecipitated from isolated primary MM cells of two patients, blotted for associated USP-7
[2] = molecular target: FLAG-tagged DEPTOR serine-to-aspartate (S-Asp) phosphomimetic mutant at residue 235 (human) (UniProt Q8TB45); assay: co-IP; anti-FLAG immunoprecipitation of FLAG-DEPTOR from 8226 or OPM-2 MM cells, immunoblot for USP-7; 4 h in the presence of MG-132, with or without drug 3g (1 uM) or PD98059
[3] = molecular target: FLAG-tagged WT DEPTOR (Disheveled, Egl-10, and Pleckstrin domain-containing mechanistic target of rapamycin-interacting protein) (human) (UniProt Q8TB45); assay: as above

Measured: binding

ubiquitin-specific protease 7 (USP-7) deubiquitinase (from UniProt Q93009 1-1102) (enzyme)
binds: all assays above
